Results taken from patent US20260158153A1 (priority 2021, published 2026).

Test: general procedure: solution-phase peptide synthesis; HATU / diisopropylethylamine
Conditions: conjugation step
“(4R,4′R)-5,5′-((((10S,18S,19S,27S)-18,19-bis(2,5-dioxo-2,5-dihydro-1H-pyrrol-1-yl)-4,9,12,17,20,25,28,33-octaoxo-10,27-bis(31-oxo-2,5,8,11,14,17,20,23,26,29-decaoxa-32-azahexatriacontan-36-yl)-3, 8,11,16,21,26,29,34-octaazahexatriacontanedioyl)bis(azanediyl))bis(4-hydroxy-3,1-phenylene))bis(4-(2-((6S,9R,11R)-6-((S)-sec-butyl)-9-isopropyl-2,3,3,8-tetramethyl-4,7,13-trioxo-12-oxa-2,5,8-triazatetradecan-11-yl)thiazole-4-carboxamido)pentanoic acid)” showed a conjugation yield of 57%.
“(4R,4′R)-5,5′-((((14S,22S,23S,31S)-22,23-bis(2,5-dioxo-2,5-dihydro-1H-pyrrol-1-yl)-4,7,10,13,16,21,24,29,32,35,38,41-dodecaoxo-14,31-bis(31-oxo-2,5,8,11,14,17,20,23,26,29-decaoxa-32-azahexatriacontan-36-yl)-3,6,9,12,15,20,25,30,33,36,39,42-dodecaazatetratetracontanedioyl)bis(azanediyl))bis(4-hydroxy-3,1-phenylene))bis(4-(2-((6S,9R,11R)-6-((S)-sec-butyl)-9-isopropyl-2,3,3,8-tetramethyl-4,7,13-trioxo-12-oxa-2,5,8-triazatetradecan-11-yl)thiazole-4-carboxamido)pentanoic acid)” gave a conjugation yield of 75% yield.
For “(25,2'S,4R,4′R)-5,5′-((((2S,5S,8S,16S,17S,25S,28S,31S)-16,17-bis(2,5-dioxo-2,5-dihydro-1H-pyrrol-1-yl)-5,28-diisopropyl-2,31-dimethyl-4,7,10,15,18,23,26,29-octaoxo-8,25-bis(31-oxo-2,5,8,11,14,17,20,23,26,29-decaoxa-32-azahexatriacontan-36-yl)-3,6,9,14,19,24,27,30-octaazadotriacontanedioyl)bis(azanediyl)) bis(4-hydroxy-3,1-phenylene))bis(4-(2-((6S,9R,11R)-6-((S)-sec-butyl)-9-isopropyl-2,3,3,8-tetramethyl-4,7,13-trioxo-12-oxa-2,5,8-triazatetradecan-11-yl)thiazole-4-carboxamido)-2-methylpentanoic acid)”, the conjugation yield was 18% yield.
For “(2S,3S)-2,3-bis(2,5-dioxo-2,5-dihydro-1H-pyrrol-1-yl)-N1,N4-bis((S)-37-(((S)-1-(((S)-1-(((S)-1-(((S)-1-(4-(((S)-4-ethyl-8-fluoro-4-hydroxy-9-methoxy-3,14-dioxo-3,4,12,14-tetrahydro-1H-pyrano[3′,4′:6,7]indolizino[1,2-b]quinolin-11-yl)methyl)piperazin-1-yl)-1-oxopropan-2-yl)amino)-1-oxopropan-2-yl)amino)-1-oxopropan-2-yl)amino)-1-oxopropan-2-yl)carbamoyl)-31,39-dioxo-2,5,8,11,14,17,20,23,26,29-decaoxa-32,38-diazadotetracontan-42-yl)succinamide”, the conjugation yield was 71% yield.
With “(R,R,S,S,S,4R,4′R)-5,5′-((((105,185,195,27S)-18,19-bis(2,5-dioxo-2,5-dihydro-1H-pyrrol-1-yl)-4,9,12,17,20,25,28,33-octaoxo-10,27-bis(31-oxo-2,5,8,11,14,17,20,23,26,29-decaoxa-32-azahexatriacontan-36-yl)-3,8,11,16,21,26,29,34-octaazahexatriacontane-1,36-dioyl)bis(azanediyl))bis(4-hydroxy-3,1-phenylene))bis(4-(2-((3S,6S,9R,11R)-6-((S)-sec-butyl)-3,9-diisopropyl-2,8-dimethyl-4,7,13-trioxo-12-oxa-2,5,8-triazatetradecan-11-yl)thiazole-4-carboxamido)pentanoic acid)” the conjugation yield was 54%.
“(2S,3S)-2,3-bis(2,5-dioxo-2,5-dihydro-1H-pyrrol-1-yl)-N1,N4-bis((S)-37-(((4S,7S,10S,13S)-1-((S)-4-ethyl-8-fluoro-4-hydroxy-9-methoxy-3,14-dioxo-3,4,12,14-tetrahydro-1H-pyrano[3′,4′:6,7]indolizino[1,2-b]quinolin-11-yl)-4,7,10-trimethyl-3,6,9,12-tetraoxo-2,5,8,11-tetraazatetradecan-13-yl)carbamoyl)-31,39-dioxo-2,5,8,11,14,17,20,23,26,29-decaoxa-32,38-diazadotetracontan-42-yl)succinamide” gave a conjugation yield of 70% yield.

Same assay, conditions: coupling step
Work on “methyl (S, E)-37-((4-((2-((5-((R)-5-(tert-butoxy)-2-((tert-butoxycarbonyl)amino)-5-oxopentyl)-2-hydroxyphenyl)amino)-2-oxoethyl)amino)-4-oxobutyl)carbamoyl)-31, 39, 44-trioxo-2, 5, 8, 11, 14, 17, 20, 23, 26, 29-decaoxa” yielded a step yield of 59%.
“di-tert-butyl (2S,5S,13S,14S,22S,25S)-13,14-bis(2,5-dioxo-2,5-dihydro-1H-pyrrol-1-yl)-2,25-dimethyl-4,7,12,15,20,23-hexaoxo-5,22-bis(31-oxo-2,5,8,11,14,17,20,23,26,29-decaoxa-32-azahexatriacontan-36-yl)-3,6,11,16,21,24-hexaazahexacosanedioate” gave a step yield of 88% yield.
In the case of “tert-butyl ((S)-37-(((benzyloxy)carbonyl)amino)-31-oxo-2,5,8,11,14,17,20,23,26,29-decaoxa-32-azaoctatriacontan-38-oyl)glycylglycyl-L-alaninate”, the step yield is reported as 58% yield.
For “tert-butyl (S)-(S)-(S)-(S)-(37-(((benzyloxy)carbonyl)amino)-31-oxo-2,5,8,11,14,17,20,23,26,29-decaoxa-32-azaoctatriacontan-38-oyl)glycylglycylglycylglycinate”, the step yield was 79% yield.

Same assay, conditions: late stage modification step
“(S, E)-(37-(4-(4-methoxy-4-oxobut-2-enamido)butanamido)-31, 38-dioxo-2, 5, 8, 11, 14, 17, 20, 23, 26, 29-decaoxa-32, 39-diazatritetracontan-43-oyl)glycine” showed a step yield of 47.33%.
Substance “(R)-4-amino-5-(4-hydroxy-3-((S)-37-(4-((E)-4-methoxy-4-oxobut-2-enamido)butanamido)-31, 38, 43-trioxo-2, 5, 8, 11, 14, 17, 20, 23, 26, 29-decaoxa-32, 39, 44-triazahexatetracontan-46-amido)phenyl)pentanoic acid” has a step yield of 100%.
Substance “(R)-4-amino-5-(3-((37S, 40S)-37-(4-(2, 5-dioxo-2, 5-dihydro-1H-pyrrol-1-yl)butanamido)-40-isopropyl-31, 38, 41-trioxo-2, 5, 8, 11, 14, 17, 20, 23, 26, 29-decaoxa-32, 39, 42-triazatetratetracontan-44-amido)-4-hydroxyphenyl)pentanoic acid” has a step yield greater than 100%.
In the case of “2, 5-dioxopyrrolidin-1-yl (S)-(S)-(S)-(37-(4-(2, 5-dioxo-2, 5-dihydro-1H-pyrrol-1-yl)butanamido)-31, 38-dioxo-2, 5, 8, 11, 14, 17, 20, 23, 26, 29-decaoxa-32, 39-diazatritetracontan-43-oyl)glycylglycylglycinate”, the step yield is reported as 99%.
“(R)-4-amino-5-(3-((37S, 40S, 43S)-37-(4-(2, 5-dioxo-2, 5-dihydro-1H-pyrrol-1-yl)butanamido)-40, 43-dimethyl-31, 38, 41-trioxo-2, 5, 8, 11, 14, 17, 20, 23, 26, 29-decaoxa-32, 39, 42-triazatetratetracontan-44-amido)-4-hydroxyphenyl)pentanoic acid” showed a step yield greater than 100%.
For “tert-butyl L-alanyl-L-alanyl-L-alanyl-L-alaninate”, the step yield was 82% yield.
For “bis(perfluorophenyl) (11S,19S,20S,28S)-19,20-bis(2,5-dioxo-2,5-dihydro-1H-pyrrol-1-yl)-4,7,10,13,18,21,26,29,32,35-decaoxo-11,28-bis(31-oxo-2,5,8,11,14,17,20,23,26,29-decaoxa-32-azahexatriacontan-36-yl)-3,6,9,12,17,22,27,30,33,36-decaazaoctatriacontanedioate”, the step yield was 99%.
“1-(tert-butyl) 20-methyl (S, E)-4, 9, 12, 17-tetraoxo-10-(31-oxo-2, 5, 8, 11, 14, 17, 20, 23, 26, 29-decaoxa-32-azahexatriacontan-36-yl)-3, 8, 11, 16-tetraazaicos-18-enedioate” gave a step yield of 36%.
In the case of “((S)-37-(4-(2, 5-dioxo-2, 5-dihydro-1H-pyrrol-1-yl)butanamido)-31-oxo-2, 5, 8, 11, 14, 17, 20, 23, 26, 29-decaoxa-32-azaoctatriacontan-38-oyl)-L-alanyl-L-alanyl-L-alanine”, the step yield is reported as 63% yield.
“((S)-2-amino-5-methoxy-5-oxopentanoyl)-L-alanyl-L-alanyl-L-alanine” showed a step yield of 100%.
“benzyl (2S, 4R)-5-(4-(benzyloxy)-3-nitrophenyl)-4-(2-((6S, 9R, 11R)-6-((S)-sec-butyl)-9-isopropyl-2, 3, 3, 8-tetramethyl-4, 7, 13-trioxo-12-oxa-2, 5, 8-triazatetradecan-11-yl)thiazole-4-carboxamido)-2-methylpentanoate” showed a step yield of 65%.
“(2S,5S,8S,16S,17S,25S,28S,31S)-16,17-bis(2,5-dioxo-2,5-dihydro-1H-pyrrol-1-yl)-5,28-diisopropyl-2,31-dimethyl-4,7,10,15,18,23,26,29-octaoxo-” showed a step yield of 50% yield.
“benzyl ((37S,40S,43S)-40-isopropyl-43-methyl-31,38,41,44,47,50-hexaoxo-2,5,8,11,14,17,20,23,26,29-decaoxa-32,39,42,45,48-pentaazapentacontan-37-yl)carbamate” gave a step yield of 68%.
For “tert-butyl ((S)-37-(4-(2, 5-dioxo-2, 5-dihydro-1H-pyrrol-1-yl)butanamido)-31-oxo-2, 5, 8, 11, 14, 17, 20, 23, 26, 29-decaoxa-32-azaoctatriacontan-38-oyl)-L-alanyl-L-alanyl-L-alaninate”, the step yield was 94% yield.
For “(2S, 4R)-4-amino-5-(3-((S)-37-(4-(2, 5-dioxo-2, 5-dihydro-1H-pyrrol-1-yl)butanamido)-31, 38, 43, 46-tetraoxo-2, 5, 8, 11, 14, 17, 20, 23, 26, 29-decaoxa-32, 39, 44, 47-tetraazanonatetracontan-49-amido)-4-hydroxyphenyl)-2-methylpentanoic acid”, the step yield was 100%.
